The other results are listed elsewhere or left out.
Experiments:
Experiment in all cases: log2 fold change, soluble protein after heating vs DMSO (PISA); higher = thermal stabilisation; K562 lysate, 10 uM; active = over 0.2 and 3.5 SD of the protein, either way, in both replicates (recomputed)
[1] = compound: CCCS(=O)(=O)Nc1ccc(F)c(C(=O)c2c[nH]c3ncc(-c4ccc(Cl)cc4)cc23)c1F [vemurafenib]
Procedure, shortened: (§1)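 Quantification was by TMTpro 16plex LC-MS/MS with equalised channel sums, applied to the supernatant after 21,000xg for 90 min. Samples were crude K562 extract at 1 mg/mL protein in PBS pH 7.4 with 1 mM MgCl2, treated with 10 μM compound for 30 min, heated for 3 min across 48°C-58°C, pooled and brought to 0.5% NP-40 at 4°C. Values are log-two fold changes in thermal stability relative to solvent controls, from duplicates.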

Chains of the proteins cited; added tags and fusions are not shown. Lines headed by an entry give the natural chain unless they say otherwise; changes in a name come on top.
UniProt P53384: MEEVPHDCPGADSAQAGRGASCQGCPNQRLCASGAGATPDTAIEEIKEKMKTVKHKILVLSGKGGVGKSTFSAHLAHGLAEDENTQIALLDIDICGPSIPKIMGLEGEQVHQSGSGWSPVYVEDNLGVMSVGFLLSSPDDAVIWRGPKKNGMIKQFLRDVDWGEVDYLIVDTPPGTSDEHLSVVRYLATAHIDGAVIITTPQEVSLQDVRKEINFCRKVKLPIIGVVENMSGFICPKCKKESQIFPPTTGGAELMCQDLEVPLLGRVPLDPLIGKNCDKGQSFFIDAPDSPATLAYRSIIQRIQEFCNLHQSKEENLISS
UniProt P49116: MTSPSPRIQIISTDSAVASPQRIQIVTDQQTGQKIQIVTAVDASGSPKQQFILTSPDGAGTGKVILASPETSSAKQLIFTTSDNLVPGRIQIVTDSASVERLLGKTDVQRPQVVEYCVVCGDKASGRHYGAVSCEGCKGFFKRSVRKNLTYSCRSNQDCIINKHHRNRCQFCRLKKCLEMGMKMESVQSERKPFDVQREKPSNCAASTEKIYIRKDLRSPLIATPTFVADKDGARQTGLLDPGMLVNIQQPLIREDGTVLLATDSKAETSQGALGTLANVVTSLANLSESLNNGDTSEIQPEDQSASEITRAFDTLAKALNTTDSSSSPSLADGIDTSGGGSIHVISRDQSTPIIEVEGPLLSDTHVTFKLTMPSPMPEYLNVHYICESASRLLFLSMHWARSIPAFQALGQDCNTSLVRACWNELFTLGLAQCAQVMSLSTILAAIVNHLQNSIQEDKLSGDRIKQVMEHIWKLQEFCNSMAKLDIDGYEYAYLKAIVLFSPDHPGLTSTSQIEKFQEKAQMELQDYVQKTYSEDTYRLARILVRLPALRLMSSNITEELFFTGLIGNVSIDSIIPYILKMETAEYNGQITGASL
UniProt Q8WV74: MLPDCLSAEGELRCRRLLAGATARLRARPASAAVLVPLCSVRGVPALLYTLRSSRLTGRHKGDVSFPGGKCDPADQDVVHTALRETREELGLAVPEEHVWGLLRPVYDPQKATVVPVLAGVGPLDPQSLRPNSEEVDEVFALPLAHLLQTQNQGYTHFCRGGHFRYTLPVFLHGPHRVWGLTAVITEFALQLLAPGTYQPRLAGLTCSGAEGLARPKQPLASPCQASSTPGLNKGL
UniProt P46531, whole entry, looked up: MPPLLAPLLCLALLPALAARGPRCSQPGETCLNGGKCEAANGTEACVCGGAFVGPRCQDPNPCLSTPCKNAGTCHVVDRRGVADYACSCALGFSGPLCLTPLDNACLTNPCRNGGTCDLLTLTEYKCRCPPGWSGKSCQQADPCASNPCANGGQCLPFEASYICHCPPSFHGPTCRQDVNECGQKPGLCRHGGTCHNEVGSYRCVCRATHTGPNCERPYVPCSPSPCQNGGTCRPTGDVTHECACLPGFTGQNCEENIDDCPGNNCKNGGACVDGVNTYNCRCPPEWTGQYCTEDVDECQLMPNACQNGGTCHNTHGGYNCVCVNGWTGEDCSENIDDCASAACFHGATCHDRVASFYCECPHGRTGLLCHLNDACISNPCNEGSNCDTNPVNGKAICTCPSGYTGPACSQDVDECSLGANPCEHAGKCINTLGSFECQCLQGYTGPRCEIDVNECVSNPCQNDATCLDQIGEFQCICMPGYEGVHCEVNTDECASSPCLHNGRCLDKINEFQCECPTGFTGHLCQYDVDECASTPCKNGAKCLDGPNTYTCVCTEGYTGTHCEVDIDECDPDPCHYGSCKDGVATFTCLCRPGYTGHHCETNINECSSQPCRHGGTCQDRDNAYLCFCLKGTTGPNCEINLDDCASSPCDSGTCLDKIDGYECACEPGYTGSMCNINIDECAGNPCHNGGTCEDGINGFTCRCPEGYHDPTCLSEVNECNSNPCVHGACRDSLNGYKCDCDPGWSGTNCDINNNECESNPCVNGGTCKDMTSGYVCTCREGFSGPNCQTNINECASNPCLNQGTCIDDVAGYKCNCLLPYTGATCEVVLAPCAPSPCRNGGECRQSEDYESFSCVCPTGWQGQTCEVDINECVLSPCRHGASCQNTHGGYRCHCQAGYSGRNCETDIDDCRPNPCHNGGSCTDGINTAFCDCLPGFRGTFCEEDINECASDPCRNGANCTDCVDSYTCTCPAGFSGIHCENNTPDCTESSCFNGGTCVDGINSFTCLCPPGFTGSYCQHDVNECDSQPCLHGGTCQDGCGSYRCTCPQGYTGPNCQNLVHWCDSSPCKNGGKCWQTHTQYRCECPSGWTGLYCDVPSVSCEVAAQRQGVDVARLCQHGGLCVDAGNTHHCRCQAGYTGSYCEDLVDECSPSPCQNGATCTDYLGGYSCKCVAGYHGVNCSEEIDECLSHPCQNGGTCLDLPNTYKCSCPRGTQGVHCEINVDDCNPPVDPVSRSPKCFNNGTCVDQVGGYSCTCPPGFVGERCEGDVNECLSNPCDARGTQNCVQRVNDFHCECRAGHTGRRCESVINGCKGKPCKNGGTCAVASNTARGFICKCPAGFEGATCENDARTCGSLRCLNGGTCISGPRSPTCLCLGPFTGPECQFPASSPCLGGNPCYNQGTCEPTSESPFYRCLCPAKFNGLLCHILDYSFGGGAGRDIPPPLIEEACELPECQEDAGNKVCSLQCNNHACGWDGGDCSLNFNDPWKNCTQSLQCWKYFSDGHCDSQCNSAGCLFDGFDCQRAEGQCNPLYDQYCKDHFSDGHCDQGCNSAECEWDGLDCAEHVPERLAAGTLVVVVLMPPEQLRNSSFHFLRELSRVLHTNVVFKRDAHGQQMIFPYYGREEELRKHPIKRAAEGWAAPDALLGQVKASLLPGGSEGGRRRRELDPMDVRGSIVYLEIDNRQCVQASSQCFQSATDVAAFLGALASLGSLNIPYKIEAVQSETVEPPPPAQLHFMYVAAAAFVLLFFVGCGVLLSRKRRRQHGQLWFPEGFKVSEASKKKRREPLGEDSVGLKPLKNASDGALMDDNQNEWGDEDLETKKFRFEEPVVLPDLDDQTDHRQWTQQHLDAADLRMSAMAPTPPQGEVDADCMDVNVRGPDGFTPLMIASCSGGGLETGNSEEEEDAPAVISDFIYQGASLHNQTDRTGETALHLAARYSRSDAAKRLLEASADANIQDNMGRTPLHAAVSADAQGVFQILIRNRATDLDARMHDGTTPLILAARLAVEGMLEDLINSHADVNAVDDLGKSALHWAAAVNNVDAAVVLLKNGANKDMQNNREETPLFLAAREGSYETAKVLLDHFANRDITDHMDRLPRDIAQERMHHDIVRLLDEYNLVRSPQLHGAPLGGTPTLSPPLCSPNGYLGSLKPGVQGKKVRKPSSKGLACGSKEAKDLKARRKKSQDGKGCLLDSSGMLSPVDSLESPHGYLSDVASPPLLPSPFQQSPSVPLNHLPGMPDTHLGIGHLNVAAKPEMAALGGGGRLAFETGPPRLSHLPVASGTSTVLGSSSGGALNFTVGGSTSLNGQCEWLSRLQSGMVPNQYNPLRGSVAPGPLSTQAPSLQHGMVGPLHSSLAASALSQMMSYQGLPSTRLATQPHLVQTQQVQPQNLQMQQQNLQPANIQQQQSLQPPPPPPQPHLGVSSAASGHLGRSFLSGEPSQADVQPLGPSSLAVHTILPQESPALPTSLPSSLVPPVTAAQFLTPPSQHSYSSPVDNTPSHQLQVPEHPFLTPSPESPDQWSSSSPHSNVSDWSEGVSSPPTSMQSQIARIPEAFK
UniProt Q9BXD5: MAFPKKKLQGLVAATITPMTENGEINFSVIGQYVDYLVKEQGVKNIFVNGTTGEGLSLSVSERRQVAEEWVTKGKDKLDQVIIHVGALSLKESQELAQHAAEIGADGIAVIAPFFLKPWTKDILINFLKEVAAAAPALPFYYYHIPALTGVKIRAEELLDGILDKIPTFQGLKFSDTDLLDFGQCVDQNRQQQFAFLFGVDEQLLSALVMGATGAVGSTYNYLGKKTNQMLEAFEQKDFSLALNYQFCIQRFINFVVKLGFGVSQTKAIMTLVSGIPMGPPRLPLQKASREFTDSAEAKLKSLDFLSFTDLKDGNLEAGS

[2] = compound: CCCS(=O)(=O)Nc1ccc(F)c(C(=O)c2c[nH]c3ncc(Cl)cc23)c1F
Procedure, shortened: as §1

[3] = compound: CCN(CCCOc1ccc2c(Nc3cc(CC(=O)Nc4cccc(F)c4)[nH]n3)ncnc2c1)CCOP(=O)(O)O [barasertib]
Procedure, shortened: as §1

[4] = compound: CC[C@@H]1C(=O)N(C)c2cnc(Nc3ccc(C(=O)NC4CCN(C)CC4)cc3OC)nc2N1C1CCCC1
Procedure, shortened: as §1

[5] = compound: CC[C@@H]1C(=O)N(C)c2cnc(Nc3ccc(C(=O)N[C@H]4CC[C@H](N5CCN(CC6CC6)CC5)CC4)cc3OC)nc2N1C(C)C [volasertib]
Procedure, shortened: as §1

[6] = compound: CCn1c(C(=O)N(C2CC2)C2CC2)cc2c3c(ncn3C)c(Nc3cc(C)n(C)n3)nc21
Procedure, shortened: as §1

[7] = compound: CCn1cc(-c2ccnc3[nH]c(-c4cccc(CN(C)C)c4)cc23)c(-c2ccc(NC(=O)N(C)C)cc2)n1
Procedure, shortened: as §1

[8] = compound: CN1CCC(CNc2ccc3ncc(-c4cccc(OC(F)(F)F)c4)n3n2)CC1
Procedure, shortened: as §1

[9] = compound: CN1CCN(CCOc2cc(OC3CCOCC3)c3c(Nc4c(Cl)ccc5c4OCO5)ncnc3c2)CC1 [saracatinib]
Procedure, shortened: as §1

[10] = compound: CN1CC[C@H](c2c(O)cc(O)c3c(=O)cc(-c4ccccc4Cl)oc23)[C@H](O)C1 [alvocidib]
Procedure, shortened: as §1

[11] = compound: CN1CCc2c(c3ccccc3n2Cc2ccc(C(=O)NO)cc2)C1 [Tubastatin A]
Procedure, shortened: as §1

[12] = compound: CNC(=O)C1=CC=CC=C1NC2=NC(=NC=C2Cl)NC3=C(C=C(C=C3)N4CCOCC4)OC
Procedure, shortened: as §1

[13] = compound: CNC(=O)c1ccc(Nc2ncc(C(F)(F)F)c(NCc3nccnc3N(C)S(C)(=O)=O)n2)cc1 [defactinib]
Procedure, shortened: as §1

[14] = compound: CNc1nc(-c2ccc3c(N)n[nH]c3c2)cc(N2C[C@@H](C(=O)NC3CCCCC3)CC[C@H]2C)n1
Procedure, shortened: as §1

[15] = compound: COC(=O)N[C@@H](C)CNc1nccc(-c2cn(C(C)C)nc2-c2cc(Cl)cc(NS(C)(=O)=O)c2F)n1 [encorafenib]
Procedure, shortened: as §1

[16] = compound: COC(=O)[C@H](CCSC)NC(=O)C1=C(C=C(C=C1)NC[C@H](CS)N)C2=CC=CC=C2
Procedure, shortened: as §1

[17] = compound: COc1cc(Nc2ncc3c(n2)-c2ccc(Cl)cc2C(c2c(F)cccc2OC)=NC3)ccc1C(=O)O [alisertib]
Procedure, shortened: as §1

[18] = compound: COc1cc2nc(-c3cc(F)ccc3O)nc(N[C@@H]3CNC[C@H]3C(C)(C)O)c2cc1OC
Procedure, shortened: as §1

[19] = compound: COc1cc2ncnc(Nc3ccc(F)c(Cl)c3)c2cc1OCCCN1CCOCC1 [gefitinib]
Procedure, shortened: as §1

[20] = compound: CN1CCN(c2nc(C3=C(c4c[nH]c5ccccc45)C(=O)NC3=O)c3ccccc3n2)CC1 [sotrastaurin]
Procedure, shortened: as §1

Measured: log2 fold change

NSA2 (UniProt O95478)
inactive: [1] -0.035 | [2] 0.101 | [3] -0.093 | [4] 0.067 | [5] 0.034 | [6] -0.043 | [7] -0.441 | [8] -0.221 | [9] -0.084 | [10] -0.291 | [11] -0.181 | [12] -0.017 | [13] 0.058 | [14] 0.066 | [15] -0.184 | [16] -0.086 | [17] -0.14 | [18] -0.012 | [19] 0.056

NUBP1 (UniProt P53384)
inactive: [1] 0.009 | [2] -0.026 | [3] 0.006 | [4] -0.037 | [5] 0.01 | [6] 0.035 | [7] -0.012 | [8] 0.005 | [9] 0.004 | [20] -0.047 | [10] 0.022 | [11] -0.064 | [12] 0.033 | [13] -0.003 | [14] 0.002 | [15] -0.006 | [16] 0.007 | [17] 0.004 | [18] 0.021 | [19] 0.013

NR2C2 isoform 2 (UniProt P49116)
inactive: [1] -0.087 | [2] 0.049 | [3] 0.017 | [4] -0.091 | [5] -0.001 | [6] 0.003 | [7] 0.075 | [8] -0.074 | [9] -0.058 | [20] 0.002 | [10] 0.075 | [11] -0.045 | [12] -0.03 | [13] 0.058 | [14] 0.1 | [15] -0.002 | [16] -0.022 | [18] -0.002

NUDT8 (UniProt Q8WV74)
inactive: [1] 0.084 | [2] -0.035 | [4] 0.05 | [5] 0.008 | [6] 0.011 | [7] -0.367 | [8] 0.054 | [9] -0.003 | [20] -0.157 | [10] 0.001 | [11] 0.053 | [12] -0.114 | [13] 0.025 | [14] 0.081 | [15] -0.059 | [16] -0.043 | [17] -0.096 | [18] 0.061 | [19] 0.28

NOTCH1 (UniProt P46531)
inactive: [1] 0.017 | [2] 0.019 | [4] 0.034 | [5] 0.018 | [6] -0.016 | [7] 0.006 | [8] -0.066 | [9] 0.048 | [20] 0.026 | [10] -0.018 | [11] 0.024 | [12] -0.034 | [13] 0.068 | [14] -0.004 | [15] 0.134 | [16] -0.251 | [17] -0.135 | [18] -0.014 | [19] 0.05

NPL (UniProt Q9BXD5)
inactive: [1] 0.121 | [2] 0.08 | [3] 0.048 | [4] -0.088 | [5] 0.191 | [7] -0.241 | [8] -0.043 | [9] 0.052 | [10] 0.018 | [12] -0.033 | [13] 0.023 | [14] 0.063 | [15] 0.032 | [16] 0.111 | [17] 0.083 | [18] -0.076 | [19] -0.08

2 neighbouring entries from above:
NUDT8 (UniProt Q8WV74)
inactive: [1] 0.084 | [2] -0.035 | [4] 0.05 | [5] 0.008 | [6] 0.011 | [7] -0.367 | [8] 0.054 | [9] -0.003 | [20] -0.157 | [10] 0.001 | [11] 0.053 | [12] -0.114 | [13] 0.025 | [14] 0.081 | [15] -0.059 | [16] -0.043 | [17] -0.096 | [18] 0.061 | [19] 0.28

NOTCH1 (UniProt P46531)
inactive: [1] 0.017 | [2] 0.019 | [4] 0.034 | [5] 0.018 | [6] -0.016 | [7] 0.006 | [8] -0.066 | [9] 0.048 | [20] 0.026 | [10] -0.018 | [11] 0.024 | [12] -0.034 | [13] 0.068 | [14] -0.004 | [15] 0.134 | [16] -0.251 | [17] -0.135 | [18] -0.014 | [19] 0.05
